For the experiment, the target named is intercellular adhesion molecule 1 (ICAM1) (mouse (endogenous, cells of the co-IP not named)) (UniProt P13597). Kind of experiment: affinity purification with mass spectrometry; IP-MS: Pierce MS-compatible Magnetic IP Kit; cell lysates incubated with the antibody at 4 °C overnight, then protein A/G magnetic beads for 2 h, five washes, eluate analysed by LC-MS/MS (searched against the Mus musculus UniProt database).

Amino acid sequences for entries named in this document (tags omitted). Residues count along the entry.
UniProt P13597, residues 28-537: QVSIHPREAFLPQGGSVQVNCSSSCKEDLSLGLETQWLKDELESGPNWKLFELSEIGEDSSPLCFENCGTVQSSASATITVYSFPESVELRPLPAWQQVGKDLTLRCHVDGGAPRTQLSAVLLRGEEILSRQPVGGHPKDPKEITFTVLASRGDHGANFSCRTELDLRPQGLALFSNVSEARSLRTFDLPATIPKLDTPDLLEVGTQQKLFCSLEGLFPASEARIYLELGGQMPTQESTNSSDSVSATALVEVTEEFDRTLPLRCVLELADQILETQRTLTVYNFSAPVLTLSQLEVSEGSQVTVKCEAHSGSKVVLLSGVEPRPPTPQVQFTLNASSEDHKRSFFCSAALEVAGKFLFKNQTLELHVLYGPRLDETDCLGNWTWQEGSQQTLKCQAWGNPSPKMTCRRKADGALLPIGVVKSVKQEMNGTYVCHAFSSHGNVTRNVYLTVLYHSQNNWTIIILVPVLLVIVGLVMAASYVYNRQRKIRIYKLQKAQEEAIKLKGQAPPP
UniProt Q6PHN9: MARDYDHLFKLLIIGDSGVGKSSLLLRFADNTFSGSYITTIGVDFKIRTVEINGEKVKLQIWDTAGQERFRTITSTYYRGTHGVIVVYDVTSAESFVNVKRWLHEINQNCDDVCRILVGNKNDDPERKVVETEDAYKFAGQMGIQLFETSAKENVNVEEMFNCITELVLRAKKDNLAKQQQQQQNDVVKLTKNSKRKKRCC

No constants are given. Whether binding was seen depends on the method and setting. Binding seen in cells or lysates may run through a third protein. Here binding means that the protein was enriched with, or labelled near, the bait; the list need not be complete. A no says only that the protein was not detected with the bait.

As for Rab35 (from UniProt Q6PHN9 1-201), the binding entry was “no binding”.

B1: Rab27a (protein, UniProt Q9ERI2 1-221)
chain: MSDGDYDYLIKFLALGDSGVGKTSVLYQYTDGKFNSKFITTVGIDFREKRVVYRANGPDGAVGRGQRIHLQLWDTAGQERFRSLTTAFFRDAMGFLLLFDLTNEQSFLNVRNWISQLQMHAYCENPDIVLCGNKSDLEDQRAVKEEEARELAEKYGIPYFETSAANGTNISHAIEMLLDLIMKRMERCVDKSWIPEGVVRSNGHTSADQLSEEKEKGLCGC
For B1, the binding result is given as “no binding”.

The values are drawn from PMC12518853.
